The other results are listed elsewhere or left out.
What was measured:
Assay in all cases: log2 fold change, soluble protein after heating vs DMSO (PISA); higher = thermal stabilisation; K562 lysate, 10 uM; active = over 0.2 and 3.5 SD of the protein, either way, in both replicates (recomputed)
[1] = compound: C=CC(=O)N1CCC[C@@H](n2nc(-c3ccc(Oc4ccccc4)cc3)c3c(N)ncnc32)C1 [ibrutinib]
How it was run: (§1)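 Following dounce homogenisation of K562 pellets in PBS pH 7.4 with 1 mM MgCl2, crude extract at 1 mg/mL protein was incubated for 30 min with 10 μM compound. Aliquots were then heated for 3 min over 48°C-58°C and pooled, NP-40 was added to 0.5% at 4°C, and soluble protein was recovered as the supernatant at 21,000xg for 90 min. Channel-sum-equalised TMTpro 16plex LC-MS/MS quantified this protein. Each value, from duplicates, is a log-two fold change in thermal stability relative to solvent controls.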

The chains behind the UniProt entries cited, without tags or fusion partners. Where a name states a change or a piece, a line headed by the entry shows the natural chain unless it says otherwise.
UniProt P13489: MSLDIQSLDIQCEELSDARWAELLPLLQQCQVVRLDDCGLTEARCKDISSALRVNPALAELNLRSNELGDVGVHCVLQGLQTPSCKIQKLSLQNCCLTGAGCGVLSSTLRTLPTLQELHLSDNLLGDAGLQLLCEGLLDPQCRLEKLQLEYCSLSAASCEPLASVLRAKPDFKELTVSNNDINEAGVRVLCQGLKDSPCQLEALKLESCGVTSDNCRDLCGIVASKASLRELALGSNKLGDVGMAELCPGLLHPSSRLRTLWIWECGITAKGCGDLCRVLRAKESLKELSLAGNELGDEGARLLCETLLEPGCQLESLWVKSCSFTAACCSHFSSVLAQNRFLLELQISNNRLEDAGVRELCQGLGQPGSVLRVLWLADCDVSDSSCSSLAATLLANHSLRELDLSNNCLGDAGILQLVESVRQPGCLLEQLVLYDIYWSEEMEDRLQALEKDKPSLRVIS
UniProt P10155: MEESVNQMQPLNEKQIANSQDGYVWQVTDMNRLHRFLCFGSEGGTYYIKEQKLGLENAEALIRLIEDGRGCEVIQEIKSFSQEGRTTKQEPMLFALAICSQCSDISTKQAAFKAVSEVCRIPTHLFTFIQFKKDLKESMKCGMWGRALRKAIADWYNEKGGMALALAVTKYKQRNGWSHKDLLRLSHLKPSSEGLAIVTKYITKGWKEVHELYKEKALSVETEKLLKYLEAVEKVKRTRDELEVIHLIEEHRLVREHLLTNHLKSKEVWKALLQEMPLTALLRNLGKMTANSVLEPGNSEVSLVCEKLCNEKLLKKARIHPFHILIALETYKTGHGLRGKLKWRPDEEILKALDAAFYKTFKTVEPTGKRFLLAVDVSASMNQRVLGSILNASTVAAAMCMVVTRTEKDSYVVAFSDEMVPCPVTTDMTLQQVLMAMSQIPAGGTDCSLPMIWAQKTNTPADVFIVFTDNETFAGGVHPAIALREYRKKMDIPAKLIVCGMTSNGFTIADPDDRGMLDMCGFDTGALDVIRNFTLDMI
UniProt Q9NWS8: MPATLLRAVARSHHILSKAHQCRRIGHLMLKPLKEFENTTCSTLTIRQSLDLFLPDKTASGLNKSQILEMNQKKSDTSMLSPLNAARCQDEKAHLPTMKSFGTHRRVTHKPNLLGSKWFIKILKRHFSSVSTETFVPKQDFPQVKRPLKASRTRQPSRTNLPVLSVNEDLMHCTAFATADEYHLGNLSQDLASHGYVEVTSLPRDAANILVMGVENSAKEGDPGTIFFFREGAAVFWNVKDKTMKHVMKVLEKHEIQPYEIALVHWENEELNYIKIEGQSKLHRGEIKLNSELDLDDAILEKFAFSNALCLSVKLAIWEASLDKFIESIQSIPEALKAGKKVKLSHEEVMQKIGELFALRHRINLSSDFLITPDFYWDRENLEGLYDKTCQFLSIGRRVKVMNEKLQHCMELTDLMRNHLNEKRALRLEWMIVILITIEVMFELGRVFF
UniProt O43148, whole entry, looked up: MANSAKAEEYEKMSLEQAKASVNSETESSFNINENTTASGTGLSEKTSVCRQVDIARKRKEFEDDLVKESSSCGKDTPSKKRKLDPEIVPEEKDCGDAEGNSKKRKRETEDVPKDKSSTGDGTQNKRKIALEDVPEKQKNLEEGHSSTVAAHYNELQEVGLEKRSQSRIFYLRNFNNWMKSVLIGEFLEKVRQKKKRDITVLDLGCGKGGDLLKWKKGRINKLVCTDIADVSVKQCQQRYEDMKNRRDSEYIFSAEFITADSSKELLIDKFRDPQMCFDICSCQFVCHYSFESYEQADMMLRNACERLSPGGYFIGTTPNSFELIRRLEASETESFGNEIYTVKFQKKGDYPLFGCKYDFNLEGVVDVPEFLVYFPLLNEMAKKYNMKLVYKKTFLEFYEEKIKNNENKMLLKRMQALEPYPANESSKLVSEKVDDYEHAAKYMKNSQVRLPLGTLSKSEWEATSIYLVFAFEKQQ
UniProt Q9BQY4: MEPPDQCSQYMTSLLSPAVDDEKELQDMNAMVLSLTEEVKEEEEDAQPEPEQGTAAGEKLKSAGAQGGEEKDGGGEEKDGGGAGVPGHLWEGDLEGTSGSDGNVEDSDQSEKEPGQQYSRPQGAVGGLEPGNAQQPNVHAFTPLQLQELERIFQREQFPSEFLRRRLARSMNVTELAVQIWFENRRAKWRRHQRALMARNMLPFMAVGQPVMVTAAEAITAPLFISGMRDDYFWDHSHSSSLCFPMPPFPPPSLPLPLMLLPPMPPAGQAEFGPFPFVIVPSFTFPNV
UniProt Q96BH1: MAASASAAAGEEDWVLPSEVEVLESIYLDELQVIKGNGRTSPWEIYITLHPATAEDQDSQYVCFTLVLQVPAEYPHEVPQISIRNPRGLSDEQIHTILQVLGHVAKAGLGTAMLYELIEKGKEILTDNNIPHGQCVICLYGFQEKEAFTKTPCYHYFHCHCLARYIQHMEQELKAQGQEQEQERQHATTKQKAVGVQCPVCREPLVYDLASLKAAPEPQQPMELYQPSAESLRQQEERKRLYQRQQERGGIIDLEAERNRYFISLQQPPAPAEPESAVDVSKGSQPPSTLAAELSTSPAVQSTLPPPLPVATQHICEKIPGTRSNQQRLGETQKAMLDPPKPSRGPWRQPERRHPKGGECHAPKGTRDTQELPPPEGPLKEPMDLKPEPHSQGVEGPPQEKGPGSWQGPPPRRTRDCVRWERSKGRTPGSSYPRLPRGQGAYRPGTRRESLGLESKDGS
UniProt P15927: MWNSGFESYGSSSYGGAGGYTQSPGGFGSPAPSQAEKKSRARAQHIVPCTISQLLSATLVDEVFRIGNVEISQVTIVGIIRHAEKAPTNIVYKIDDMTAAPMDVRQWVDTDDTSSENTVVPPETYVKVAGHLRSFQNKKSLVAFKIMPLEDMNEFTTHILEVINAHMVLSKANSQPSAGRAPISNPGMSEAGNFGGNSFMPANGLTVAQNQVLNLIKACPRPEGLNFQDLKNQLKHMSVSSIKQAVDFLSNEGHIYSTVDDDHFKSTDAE
UniProt Q9BRS2: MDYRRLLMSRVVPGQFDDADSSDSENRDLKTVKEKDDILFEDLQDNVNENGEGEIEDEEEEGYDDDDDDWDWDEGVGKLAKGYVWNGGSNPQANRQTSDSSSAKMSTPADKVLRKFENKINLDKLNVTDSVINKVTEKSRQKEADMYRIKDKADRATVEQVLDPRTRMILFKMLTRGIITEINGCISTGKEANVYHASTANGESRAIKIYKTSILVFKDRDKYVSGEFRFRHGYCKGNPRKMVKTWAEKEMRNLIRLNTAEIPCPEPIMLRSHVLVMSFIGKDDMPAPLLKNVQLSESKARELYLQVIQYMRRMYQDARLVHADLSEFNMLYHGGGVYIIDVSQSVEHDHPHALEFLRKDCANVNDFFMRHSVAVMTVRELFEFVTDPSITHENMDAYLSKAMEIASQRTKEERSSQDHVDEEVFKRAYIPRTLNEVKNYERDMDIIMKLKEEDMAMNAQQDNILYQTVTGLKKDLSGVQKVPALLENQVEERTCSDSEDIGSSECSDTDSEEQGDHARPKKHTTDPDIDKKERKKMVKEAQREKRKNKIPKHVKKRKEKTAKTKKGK
UniProt Q5VTR2, whole entry, looked up: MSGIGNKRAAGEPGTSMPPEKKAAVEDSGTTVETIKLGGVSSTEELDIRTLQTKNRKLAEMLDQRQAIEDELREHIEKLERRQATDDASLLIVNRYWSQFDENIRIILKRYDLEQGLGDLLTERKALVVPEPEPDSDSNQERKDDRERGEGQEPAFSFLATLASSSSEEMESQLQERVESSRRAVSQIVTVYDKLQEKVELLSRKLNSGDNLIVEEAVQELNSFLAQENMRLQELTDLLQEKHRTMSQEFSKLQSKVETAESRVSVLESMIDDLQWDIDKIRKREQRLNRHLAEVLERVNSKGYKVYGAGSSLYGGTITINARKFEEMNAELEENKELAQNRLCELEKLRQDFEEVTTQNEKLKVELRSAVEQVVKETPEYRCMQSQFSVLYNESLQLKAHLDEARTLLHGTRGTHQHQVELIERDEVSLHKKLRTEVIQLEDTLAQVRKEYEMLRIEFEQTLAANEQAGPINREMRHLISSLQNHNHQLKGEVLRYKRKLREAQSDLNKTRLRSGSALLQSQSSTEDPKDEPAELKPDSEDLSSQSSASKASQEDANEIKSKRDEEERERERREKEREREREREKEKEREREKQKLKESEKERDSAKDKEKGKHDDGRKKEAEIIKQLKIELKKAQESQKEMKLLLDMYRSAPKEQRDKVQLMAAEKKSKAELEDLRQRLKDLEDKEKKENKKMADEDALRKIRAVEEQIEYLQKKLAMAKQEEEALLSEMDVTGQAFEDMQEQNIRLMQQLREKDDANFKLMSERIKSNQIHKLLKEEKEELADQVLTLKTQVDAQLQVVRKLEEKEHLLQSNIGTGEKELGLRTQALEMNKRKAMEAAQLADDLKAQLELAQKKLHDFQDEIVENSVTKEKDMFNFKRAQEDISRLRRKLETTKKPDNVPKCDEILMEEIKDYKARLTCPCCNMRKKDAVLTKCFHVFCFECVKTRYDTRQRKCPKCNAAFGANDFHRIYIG
UniProt Q5VTB9: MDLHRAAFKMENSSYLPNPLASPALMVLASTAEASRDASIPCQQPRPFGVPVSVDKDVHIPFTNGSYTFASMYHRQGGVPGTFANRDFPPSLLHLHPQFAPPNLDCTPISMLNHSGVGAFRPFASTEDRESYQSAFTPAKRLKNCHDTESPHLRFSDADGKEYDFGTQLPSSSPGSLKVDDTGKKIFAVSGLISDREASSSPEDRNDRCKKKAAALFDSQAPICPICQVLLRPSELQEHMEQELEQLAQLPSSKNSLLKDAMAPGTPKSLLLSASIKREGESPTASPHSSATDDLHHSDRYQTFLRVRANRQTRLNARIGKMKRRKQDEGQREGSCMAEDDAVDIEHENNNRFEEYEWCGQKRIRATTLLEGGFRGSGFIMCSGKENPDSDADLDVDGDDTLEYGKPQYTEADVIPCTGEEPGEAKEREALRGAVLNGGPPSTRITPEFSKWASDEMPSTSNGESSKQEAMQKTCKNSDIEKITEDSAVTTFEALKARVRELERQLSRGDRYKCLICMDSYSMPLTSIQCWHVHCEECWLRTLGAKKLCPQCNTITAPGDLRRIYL
UniProt O75116: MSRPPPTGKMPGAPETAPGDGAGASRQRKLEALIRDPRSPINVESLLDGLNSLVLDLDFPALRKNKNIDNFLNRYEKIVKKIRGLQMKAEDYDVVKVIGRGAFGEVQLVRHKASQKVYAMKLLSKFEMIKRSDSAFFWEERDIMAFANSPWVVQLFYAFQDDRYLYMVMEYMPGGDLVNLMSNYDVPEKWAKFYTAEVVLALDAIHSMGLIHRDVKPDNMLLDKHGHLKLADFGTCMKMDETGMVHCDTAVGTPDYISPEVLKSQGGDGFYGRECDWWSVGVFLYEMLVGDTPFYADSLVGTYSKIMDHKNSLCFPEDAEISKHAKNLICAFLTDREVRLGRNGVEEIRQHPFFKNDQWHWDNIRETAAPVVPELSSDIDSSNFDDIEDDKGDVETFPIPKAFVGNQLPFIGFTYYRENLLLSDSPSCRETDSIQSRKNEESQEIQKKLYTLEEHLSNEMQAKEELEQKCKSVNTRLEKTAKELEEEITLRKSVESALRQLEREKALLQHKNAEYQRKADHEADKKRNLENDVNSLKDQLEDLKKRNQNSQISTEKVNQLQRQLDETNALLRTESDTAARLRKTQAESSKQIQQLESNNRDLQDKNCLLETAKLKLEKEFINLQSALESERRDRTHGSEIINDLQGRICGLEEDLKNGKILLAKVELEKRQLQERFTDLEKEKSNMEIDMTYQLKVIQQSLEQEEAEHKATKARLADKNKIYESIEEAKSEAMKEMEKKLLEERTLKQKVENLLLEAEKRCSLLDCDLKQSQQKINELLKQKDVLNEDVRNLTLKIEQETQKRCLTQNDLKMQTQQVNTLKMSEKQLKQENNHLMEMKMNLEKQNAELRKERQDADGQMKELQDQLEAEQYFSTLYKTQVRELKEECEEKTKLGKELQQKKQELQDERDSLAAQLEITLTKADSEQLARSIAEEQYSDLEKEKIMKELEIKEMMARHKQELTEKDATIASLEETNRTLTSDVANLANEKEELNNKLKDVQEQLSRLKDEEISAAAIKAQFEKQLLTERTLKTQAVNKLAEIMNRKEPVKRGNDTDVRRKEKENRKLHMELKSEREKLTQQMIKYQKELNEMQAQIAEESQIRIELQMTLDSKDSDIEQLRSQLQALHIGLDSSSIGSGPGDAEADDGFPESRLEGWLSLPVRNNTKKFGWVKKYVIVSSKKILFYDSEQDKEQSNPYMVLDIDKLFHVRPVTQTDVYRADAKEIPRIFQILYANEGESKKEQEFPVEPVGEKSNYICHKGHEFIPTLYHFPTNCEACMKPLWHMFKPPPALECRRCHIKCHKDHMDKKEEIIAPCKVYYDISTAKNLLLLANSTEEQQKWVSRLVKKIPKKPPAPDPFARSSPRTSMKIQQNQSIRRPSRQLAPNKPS

[2] = compound: CC(=O)c1cnc2ccc(-c3cc(Cl)c(O)c(Cl)c3)nc2c1N[C@H]1CC[C@H](CN(C)C)CC1
How it was run: as §1

[3] = compound: CC(C)(C)Cn1c(N)nc2ccc(-c3[nH]c(C(C)(C)C)nc3-c3ccc(F)cc3)nc21 [ralimetinib]
How it was run: as §1

[4] = compound: CC(C)(O)CC(=O)NCCn1ccc2ncnc(Nc3ccc(Oc4cccc(C(F)(F)F)c4)c(Cl)c3)c21
How it was run: as §1

[5] = compound: CC(C)C1=C2N=C(C=C(N2N=C1)NCC3=CC=CC=C3)NCCCCCCN
How it was run: as §1

[6] = compound: CC1=C(C(CC(=O)N1)C2=CC=C(C=C2)C(F)(F)F)C(=O)NC3=C(C=C4C(=C3)C=NN4)F
How it was run: as §1

[7] = compound: CC1=C(C2=C(C=C1)C(=O)C3=CC=CC=C3N2CCCN)C
How it was run: as §1

[8] = compound: CC1=C(C=C(C=C1)NC(=O)C2=CC(=CC=C2)C(C)(C)C#N)NC3=CC4=C(C=C3)N=CN(C4=O)C
How it was run: as §1

[9] = compound: CC1=C(C=C(C=C1)NC(=O)C2=CC(=CC=C2)N(C)C)NC(=O)C3=CC=C(C=C3)O
How it was run: as §1

[10] = compound: CC1=CC=C(C=C1)SC2=C3C=C(SC3=CN=C2)C(=O)N
How it was run: as §1

Measured: log2 fold change

RPL21 (UniProt P46778)
inactive: [1] 0.012 | [2] -0.022 | [3] -0.019 | [4] -0.038 | [5] 0.021 | [6] -0.033 | [7] -0.016 | [8] 0.015 | [9] 0.003 | [10] 0.009

RNH1 (UniProt P13489)
inactive: [1] 0.003 | [2] -0.025 | [3] -0.049 | [4] 0.035 | [5] 0.064 | [6] -0.041 | [7] 0.02 | [8] 0.115 | [9] -0.064 | [10] -0.006

RPL30 (UniProt P62888)
inactive: [1] 0.013 | [2] -0.017 | [3] 0.004 | [4] 0 | [5] -0.006 | [6] 0.023 | [7] -0.026 | [8] -0.014 | [9] -0.021 | [10] 0.015

RO60 (UniProt P10155)
inactive: [1] 0.043 | [2] 0.002 | [3] 0.022 | [4] 0.001 | [5] 0.011 | [6] -0.011 | [7] 0.013 | [8] -0.018 | [9] -0.014 | [10] 0.001

RPL17 isoform 3 (UniProt P18621)
inactive: [1] 0.017 | [2] 0.015 | [3] -0.014 | [4] -0.013 | [5] -0.008 | [6] -0.028 | [7] -0.022 | [8] -0.007 | [9] 0.003 | [10] 0.012

RPL26 (UniProt P61254)
inactive: [1] -0.048 | [2] -0.01 | [3] -0.18 | [4] 0.06 | [5] -0.011 | [6] 0.076 | [7] 0.011 | [8] -0.01 | [9] 0.094 | [10] -0.003

RMND1 (UniProt Q9NWS8)
inactive: [1] 0.01 | [2] 0.007 | [3] -0.032 | [4] 0.038 | [5] -0.035 | [6] 0.011 | [7] 0 | [8] 0.054 | [9] 0.061 | [10] -0.001

RHOG (UniProt P84095)
inactive: [1] 0.037 | [2] 0.011 | [3] -0.054 | [4] 0.03 | [5] -0.015 | [6] -0.019 | [7] -0.025 | [8] 0.025 | [9] -0.024 | [10] 0

RIC8A (UniProt Q9NPQ8)
inactive: [1] 0.008 | [2] -0.002 | [3] 0.006 | [4] 0.015 | [5] -0.043 | [6] 0.004 | [7] 0.015 | [8] 0.029 | [9] 0.007 | [10] -0.004

RNMT isoform 2 (UniProt O43148)
inactive: [1] -0.01 | [2] -0.024 | [3] -0.012 | [4] -0.026 | [5] -0.09 | [6] 0.007 | [7] 0.013 | [8] 0.018 | [9] 0.034 | [10] 0.003

RHOXF2 (UniProt Q9BQY4)
inactive: [1] 0.027 | [2] -0.078 | [3] -0.01 | [4] -0.061 | [5] -0.011 | [6] 0 | [7] -0.026 | [8] -0.097 | [9] -0.004 | [10] -0.032

2 records drawn at random from those above:
RO60 (UniProt P10155)
inactive: [1] 0.043 | [2] 0.002 | [3] 0.022 | [4] 0.001 | [5] 0.011 | [6] -0.011 | [7] 0.013 | [8] -0.018 | [9] -0.014 | [10] 0.001

RNH1 (UniProt P13489)
inactive: [1] 0.003 | [2] -0.025 | [3] -0.049 | [4] 0.035 | [5] 0.064 | [6] -0.041 | [7] 0.02 | [8] 0.115 | [9] -0.064 | [10] -0.006

Further entries.

RPL28 (UniProt P46779)
inactive: [1] -0.026 | [2] -0.011 | [3] -0.003 | [4] -0.005 | [5] 0.006 | [6] -0.038 | [7] -0.066 | [8] -0.021 | [9] 0.012 | [10] 0.026

RNF25 (UniProt Q96BH1)
inactive: [1] 0.021 | [2] 0.03 | [3] -0.004 | [4] 0.019 | [5] 0.042 | [6] -0.02 | [7] -0.009 | [8] 0.023 | [9] 0.006 | [10] -0.028

RP2 (UniProt O75695)
inactive: [1] 0.009 | [2] 0.031 | [3] -0.006 | [4] 0.031 | [5] -0.058 | [6] 0.057 | [7] 0.001 | [8] -0.039 | [9] 0.03 | [10] 0.017

RPA2 isoform 3 (UniProt P15927)
inactive: [1] -0.007 | [2] -0.013 | [3] 0.005 | [4] -0.003 | [5] -0.006 | [6] -0.037 | [7] 0.002 | [8] 0.019 | [9] -0.002 | [10] -0.012

RINT1 (UniProt Q6NUQ1)
inactive: [1] 0.011 | [2] 0.07 | [3] 0.05 | [4] -0.094 | [5] 0.016 | [6] -0.066 | [7] -0.064 | [8] -0.02 | [9] 0.012 | [10] 0.016

RHOT2 (UniProt Q8IXI1)
inactive: [1] -0.005 | [2] -0.014 | [3] 0.006 | [4] -0.007 | [5] -0.032 | [6] -0.093 | [7] 0.012 | [8] 0.028 | [9] 0.01 | [10] 0.021

RPL23 (UniProt P62829)
inactive: [1] -0.048 | [2] -0.016 | [3] -0.006 | [4] -0.018 | [5] 0.014 | [6] 0 | [7] -0.066 | [8] 0.011 | [9] 0.011 | [10] 0.01

RIOK1 (UniProt Q9BRS2)
inactive: [1] 0.006 | [2] 0.251 | [3] 0.002 | [4] -0.003 | [5] -0.005 | [6] 0.004 | [7] -0.009 | [8] 0.015 | [9] -0.009 | [10] 0.249

RPL13A (UniProt P40429)
inactive: [1] -0.036 | [2] -0.01 | [3] -0.013 | [4] -0.002 | [5] 0.006 | [6] -0.036 | [7] -0.055 | [8] -0.03 | [9] 0 | [10] 0.031

RNF121 (UniProt Q9H920)
inactive: [1] 0.014 | [2] -0.123 | [3] -0.112 | [4] 0.056 | [5] -0.057 | [6] 0.057 | [7] 0.128 | [8] 0.05 | [9] -0.073 | [10] -0.064

RNF20 (UniProt Q5VTR2)
inactive: [1] 0.012 | [2] -0.002 | [3] -0.002 | [4] -0.038 | [5] -0.011 | [6] -0.013 | [7] 0.003 | [8] -0.006 | [9] -0.002 | [10] -0.015

RNF17 (UniProt Q9BXT8)
inactive: [1] -0.098 | [2] 0.035 | [3] -0.044 | [4] -0.254 | [5] -0.023 | [7] 0.077 | [8] -0.196 | [9] -0.044 | [10] -0.068

RPL10 (UniProt F8W7C6)
inactive: [1] 0.014 | [2] 0.023 | [3] 0.067 | [4] -0.155 | [5] -0.024 | [6] -0.032 | [7] -0.154 | [8] -0.004 | [9] -0.055 | [10] -0.061

RNF220 (UniProt Q5VTB9)
inactive: [1] -0.037 | [2] 0.03 | [3] 0.015 | [4] 0.01 | [5] -0.057 | [6] 0.03 | [7] 0.009 | [8] 0.029 | [9] -0.024 | [10] -0.039

ROCK2 (UniProt O75116)
inactive: [1] -0.02 | [2] 0.008 | [3] 0.017 | [4] -0.004 | [5] 0.004 | [6] 0.142 | [7] -0.025 | [8] -0.022 | [9] 0.029 | [10] -0.003

RPL10 (UniProt P27635)
inactive: [1] -0.007 | [2] 0.004 | [3] 0.014 | [4] 0.002 | [5] 0.003 | [6] 0.004 | [7] -0.038 | [8] -0.014 | [9] -0.008 | [10] 0.052
